Results: publication PMC7026407
No constants are given. Whether binding was seen depends on the method and setting.

By UniProt entry, the sequences of proteins in these tests, tags left out. Residues count along the entry.
UniProt P18065, residues 36-325: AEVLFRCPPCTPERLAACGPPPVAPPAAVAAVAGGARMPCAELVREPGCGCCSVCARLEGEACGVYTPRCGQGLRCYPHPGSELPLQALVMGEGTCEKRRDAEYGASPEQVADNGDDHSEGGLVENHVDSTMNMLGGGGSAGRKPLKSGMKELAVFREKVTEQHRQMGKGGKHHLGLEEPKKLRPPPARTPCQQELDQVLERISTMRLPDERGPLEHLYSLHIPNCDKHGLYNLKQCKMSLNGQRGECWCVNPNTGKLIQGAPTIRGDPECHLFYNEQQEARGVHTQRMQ

Experiments:
IGFBP-2 [1] = molecular target: IGFBP-2 (UniProt P18065); assay: SPR; IGF binding protein or Fc fusion amine-coupled to a CM4 chip, growth factor as analyte; Biacore T100/T200; HBS-P, with 0.2 mg/ml BSA or 0.65 M NaCl to reduce non-specific binding; 25 °C; 1:1 binding fit; both purified
IGFBP-2 [2] = molecular target: IGFBP-2 (UniProt P18065); assay: SPR; IGF binding protein or Fc fusion amine-coupled to a CM4 chip, growth factor as analyte; Biacore T100 or T200, HBS-P, BSA (0.2 mg/ml) or NaCl (0.65 M final) to reduce non-specific binding, 25 °C; 1:1 binding analysis; both purified
IGFBP-7 [3] = molecular target: T1, IGFBP-7 (UniProt Q16270); assay: SPR; IGF binding protein or Fc fusion amine-coupled to a CM4 chip, growth factor as analyte; Biacore T100/T200; HBS-P, with 0.2 mg/ml BSA or 0.65 M NaCl to reduce non-specific binding; 25 °C; 1:1 binding fit; both purified
T1 sequence: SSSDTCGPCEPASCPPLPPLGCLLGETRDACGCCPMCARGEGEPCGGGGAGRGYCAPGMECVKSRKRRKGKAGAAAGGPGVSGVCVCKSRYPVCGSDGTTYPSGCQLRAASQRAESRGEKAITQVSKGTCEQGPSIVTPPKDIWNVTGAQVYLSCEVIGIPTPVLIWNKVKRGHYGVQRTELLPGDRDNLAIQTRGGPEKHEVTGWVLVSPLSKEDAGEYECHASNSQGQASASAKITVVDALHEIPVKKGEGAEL

IGFBP-7 [4] = molecular target: T1, IGFBP-7; assay: SPR; IGF binding protein or Fc fusion amine-coupled to a CM4 chip, growth factor as analyte; Biacore T100 or T200, HBS-P, BSA (0.2 mg/ml) or NaCl (0.65 M final) to reduce non-specific binding, 25 °C; 1:1 binding analysis; both purified

Row | binding (IGFBP-2 [1]) | binding (IGFBP-2 [2]) | binding (IGFBP-7 [3]) | binding (IGFBP-7 [4]) | Substance
1 | no binding |  |  |  | PDGF AB (from UniProt P04085 87-211; P01127 82-190) (complex)
2 |  | no binding |  |  | PDGF AB (from UniProt P04085 87-211; P01127 82-190) (ligand)
3 |  | no binding |  |  | hepatocyte growth factor (from UniProt P14210 32-728) (ligand)
4 |  |  | no binding | no binding | insulin-like growth factor-1 (from UniProt P05019 49-118) (ligand)
5 |  |  | no binding | no binding | insulin-like growth factor-2 (from UniProt P01344 25-91) (ligand)
